The M2OR odorant receptor database
Only a part is listed here, and it is no random draw. Calls are pooled over several reports, among them a noisy single-well screen. The list shows a part of the results.

Legend:
Settings in all cases: stereoisomer not certain
OR6J1 = test system: T1, OR6J1
T1 sequence (whole entry): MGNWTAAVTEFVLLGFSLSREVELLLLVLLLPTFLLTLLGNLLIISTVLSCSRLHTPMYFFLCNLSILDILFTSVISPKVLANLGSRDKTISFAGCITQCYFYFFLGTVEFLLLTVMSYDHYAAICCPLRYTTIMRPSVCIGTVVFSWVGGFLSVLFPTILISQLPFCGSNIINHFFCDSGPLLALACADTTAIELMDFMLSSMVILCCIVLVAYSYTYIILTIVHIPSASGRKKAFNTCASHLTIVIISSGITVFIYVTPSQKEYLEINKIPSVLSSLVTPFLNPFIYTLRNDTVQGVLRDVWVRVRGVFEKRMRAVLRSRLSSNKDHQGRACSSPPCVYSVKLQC
Outline: (§1)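 Each entry records the cell line, G-protein, co-transfected protein and tags used. Methods varied with the source, often transient luciferase assays in mammalian cell lines. A receptor–molecule pair is called responsive (active) if the original authors judged its signal statistically different from baseline and non-responsive (inactive) otherwise.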

OR6K2 (Homo sapiens) = target: T2, OR6K2 (Homo sapiens) (UniProt Q8NGY2)
T2 sequence (whole entry): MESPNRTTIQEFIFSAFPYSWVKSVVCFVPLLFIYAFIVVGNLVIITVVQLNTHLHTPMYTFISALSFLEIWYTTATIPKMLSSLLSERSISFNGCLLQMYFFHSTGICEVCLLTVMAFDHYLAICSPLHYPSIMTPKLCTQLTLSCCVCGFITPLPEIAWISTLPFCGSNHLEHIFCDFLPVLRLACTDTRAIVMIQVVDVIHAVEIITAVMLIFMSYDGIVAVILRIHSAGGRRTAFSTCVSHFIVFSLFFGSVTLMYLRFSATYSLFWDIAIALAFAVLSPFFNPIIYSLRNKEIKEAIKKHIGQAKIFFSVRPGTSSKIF
Outline: as §1

OR6K3 [1] = test system: T3, OR6K3
T3 sequence (whole entry): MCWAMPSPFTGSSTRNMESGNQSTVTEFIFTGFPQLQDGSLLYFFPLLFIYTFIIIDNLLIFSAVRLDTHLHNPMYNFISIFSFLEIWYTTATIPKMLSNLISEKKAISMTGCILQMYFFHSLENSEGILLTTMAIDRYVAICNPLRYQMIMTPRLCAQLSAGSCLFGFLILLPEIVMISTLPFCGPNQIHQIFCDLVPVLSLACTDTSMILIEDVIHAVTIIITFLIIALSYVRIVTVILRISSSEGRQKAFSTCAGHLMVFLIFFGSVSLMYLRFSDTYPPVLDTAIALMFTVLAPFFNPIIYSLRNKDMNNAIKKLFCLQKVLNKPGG
Outline: as §1

OR6K3 [2] = test system: T4, OR6K3; remark: listed apart in the source
T4 sequence (whole entry): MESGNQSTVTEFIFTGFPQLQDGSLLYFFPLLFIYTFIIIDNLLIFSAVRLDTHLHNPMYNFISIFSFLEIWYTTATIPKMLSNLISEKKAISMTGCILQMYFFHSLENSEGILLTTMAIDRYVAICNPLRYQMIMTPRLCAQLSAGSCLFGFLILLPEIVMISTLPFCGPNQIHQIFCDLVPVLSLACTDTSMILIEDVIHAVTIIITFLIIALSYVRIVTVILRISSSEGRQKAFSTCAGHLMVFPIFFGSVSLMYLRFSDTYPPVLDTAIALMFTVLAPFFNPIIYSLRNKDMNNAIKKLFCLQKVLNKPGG
Outline: as §1

OR6K6 [3] = test system: T5, OR6K6
T5 sequence (whole entry): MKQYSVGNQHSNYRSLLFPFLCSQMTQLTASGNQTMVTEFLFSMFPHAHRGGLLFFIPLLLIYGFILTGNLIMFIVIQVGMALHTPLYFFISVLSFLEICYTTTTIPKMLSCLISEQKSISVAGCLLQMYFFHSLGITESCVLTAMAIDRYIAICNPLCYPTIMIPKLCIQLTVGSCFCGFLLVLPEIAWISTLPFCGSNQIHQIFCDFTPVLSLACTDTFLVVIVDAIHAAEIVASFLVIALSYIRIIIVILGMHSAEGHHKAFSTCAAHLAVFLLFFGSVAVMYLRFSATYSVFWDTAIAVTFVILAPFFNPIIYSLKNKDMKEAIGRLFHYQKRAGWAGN
Outline: as §1

OR6K6 [4] = test system: T6, OR6K6; remark: listed apart in the source
T6 sequence (whole entry): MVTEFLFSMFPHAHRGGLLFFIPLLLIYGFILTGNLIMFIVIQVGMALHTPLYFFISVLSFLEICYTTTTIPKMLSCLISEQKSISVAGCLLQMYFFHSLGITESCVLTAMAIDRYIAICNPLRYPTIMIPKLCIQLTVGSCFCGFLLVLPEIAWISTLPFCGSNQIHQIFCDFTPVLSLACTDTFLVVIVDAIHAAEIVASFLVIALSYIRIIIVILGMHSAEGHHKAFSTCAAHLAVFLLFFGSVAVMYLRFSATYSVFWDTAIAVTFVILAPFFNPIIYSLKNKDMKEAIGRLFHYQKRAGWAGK
Outline: as §1

| SMILES | odorant receptor agonist call (OR6J1) | odorant receptor agonist call (OR6K2 (Homo sapiens)) | odorant receptor agonist call (OR6K3 [1]) | odorant receptor agonist call (OR6K3 [2]) | odorant receptor agonist call (OR6K6 [3]) | odorant receptor agonist call (OR6K6 [4]) |
| --- | --- | --- | --- | --- | --- | --- |
| O=C1CCCCCCCCCCCCCCO1 | inactive | inactive | inactive | inactive | inactive | inactive |
| CCCCCCCC=O | inactive | inactive | inactive | inactive | inactive | inactive |
| CCCCCC(C)=O |  | inactive | inactive | inactive | inactive | inactive |
| CCCCO | inactive | inactive | inactive | inactive | inactive | inactive |
| CCC1(O)C2(C)CCC(C2)C1(C)C (stereo not given) | inactive | inactive | inactive | inactive | inactive | inactive |
| CC12C=CCC1C1CCC3=CC(=O)CCC3(C)C1CC2 (stereo not given) | inactive | inactive | inactive | inactive | inactive | inactive |
| CC12CCC(CC1)C(C)(C)O2 | inactive | inactive | inactive | inactive | inactive | inactive |
| C=CCc1ccc(OC(C)=O)c(OC)c1 | active | inactive | inactive | inactive | inactive | inactive |
| O=C1CCCCC1 |  | inactive | inactive | inactive | inactive | inactive |
| O=CCc1ccccc1 | inactive | inactive | inactive | inactive | inactive | inactive |
| CC(=O)OC1CC2CCC1(C)C2(C)C (stereo not given) | inactive | inactive | inactive | inactive | inactive | inactive |
| COc1ccccc1O | inactive | active | inactive | inactive | inactive | inactive |
| CC(=O)c1ccccc1 |  | inactive | inactive | inactive | inactive | inactive |
| CCCCCCCCCC=O | inactive | inactive | inactive | inactive | inactive | inactive |
| CCCCCOC(C)=O | inactive | inactive | inactive | inactive | inactive | inactive |
| CC1=NC(C)SC1C (stereo not given) |  | inactive | inactive | inactive | inactive | inactive |
| CCCCCCCOC(C)=O | inactive | inactive | inactive | inactive | inactive | inactive |
| O=C1CCCCCCCCCCCC(=O)OCCO1 | inactive | inactive | inactive | inactive | inactive | inactive |
| CC(C)C(=O)O | inactive | inactive | inactive | inactive | inactive | inactive |
| CCCCCCCCOC(C)=O | inactive | inactive | inactive | inactive | inactive | inactive |
| CC1COCc2cc3c(cc21)C(C)(C)C(C)C3(C)C (stereo not given) | active | active | active | active | active | active |
| CCCCCCCCCCC=O | inactive | inactive | inactive | inactive | inactive | inactive |
| CCC=CCCO | inactive | inactive | inactive | inactive | inactive | inactive |
| COC(=O)c1ccccc1 |  | inactive | inactive | inactive | inactive | inactive |
| CC(C)(C)c1ccc(CCC=O)cc1 | inactive | inactive | inactive | inactive | inactive | inactive |

Some values from the entries so far:
odorant receptor agonist call (OR6K6 [4]) with COC(=O)c1ccccc1 is entered as inactive
odorant receptor agonist call (OR6K6 [3]) with CC(C)(C)c1ccc(CCC=O)cc1 is entered as inactive
